Primary screen of a compound library

Data taken from ChEMBL document CHEMBL3988442, “University of Dundee, Small-Polar-MMV Screening Library” (2021).

Mtb glucose medium: 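Whole-cell growth test on Mycobacterium tuberculosis, read after 3 days in glucose-containing 7H9 medium; the read-out is not stated. Tested at 50 µM. Direction is inferred from retests: higher values go with more growth inhibition. Of about 69,000 compounds tested this way, about 760 (1.1%) reached 50% or more in at least one test.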
Mtb cholesterol medium: 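Whole-cell growth test on Mycobacterium tuberculosis, read after 4 days in a medium based on cholesterol and the lipid DPPC; the read-out is not stated. Tested at 50 µM. The record gives no direction; compounds that gave an IC50 in retests scored well above the rest, so higher reads as more growth inhibition. About 69,000 compounds were tested under these conditions; 0.54% (about 370) showed 50% or more at least once.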

Each number is a percent effect as filed. How 0% and 100% were set is not recorded. Most values in the screen are low, and negative values occur. This is an unselected part of the compounds tested. Two or more numbers in one place are separate tests of the same structure; such repeats can differ widely.

| compound | Mtb glucose medium | Mtb cholesterol medium |
|---|---|---|
| `CCCn1cnc2c1CN(C(=O)c1ccc(F)cc1)[C@H](C(=O)OC)C2` | -5.289% & 15.52% | -13.33% |
| `Cc1nn(C)c(Cl)c1C1CCCN1C(=O)c1cccn1C` (stereo not drawn) | 10.96% | -4.229% |
| `CNS(=O)(=O)CC1CCCN1C(=O)c1cccc(Cl)c1` (stereo not drawn) | -2.497% | -9.643% |
| `CSc1nccn1-c1cccc(C(=O)NCCCN2CCOCC2)c1` | 19.34% | -11.37% |
| `COc1cccc(N2CCN(Cc3ncc[nH]3)CC2=O)c1` | -2.783% & -26.29% | -33.71% |
| `Cc1nn(C)c(N(C)C)c1CNCCCN(C)S(C)(=O)=O` | 5.255% | -12.11% |
| `CCOc1ccc(C(=O)CCC(=O)NCCc2nncn2CC)cc1C` | -31.2% & -3.543% | -50.83% |
| `NCc1ccc(Oc2cccc(Cl)c2Cl)nc1` | 1.921% & -29.57% | -12.97% |
| `CCNC(=O)N1CCc2ccc(NC(=O)NCC3CC3)cc21` | -14.05% | -4.632% |
| `COCCOC1CCN(C(C(=O)O)c2ccc3c(c2)OCO3)CC1` (stereo not drawn) | -0.9799% & -18.31% | 14.76% |
| `CC(C)[C@@H]1CN(S(=O)(=O)Cc2ccccc2)C[C@H]1C(=O)O` | 17.83% | 9.538% |
| `COc1ccc(F)cc1CN1CCCC(c2cc(C(N)=O)[nH]n2)C1` (stereo not drawn) | 13.44% | 10.02% |
| `O=C(O)C(F)(F)F.O=C(O)C(F)(F)F.O=C(O)C(F)(F)F.O=C(O)c1cc2c(nc1-c1ccncc1)CCN(C1CCOC1)CC2` (stereo not drawn) | -5.874% & -5.414% | 13.41% & -8.584% |
| `Cc1noc(C)c1-c1ccnc(C2CCNCC2)c1` | -2.019% | 10.78% |
| `Cc1ccccc1CN(Cc1ccccn1)C(=O)CN(C)C(C)C` | -8.833% | -23.58% |
| `Fc1cnc(N2CCC3(CCCN(c4nncs4)C3)C2)nc1` (stereo not drawn) | 10.86% | -14.14% |
| `c1cnc(-c2cnc(N3CCSCC3)nc2C2CCCO2)cn1` (stereo not drawn) | -10.46% | 10.13% |
| `NS(=O)(=O)CC1CCCN1CCOc1ccccc1F` (stereo not drawn) | 24.71% | 6.003% |
| `CN(C(=O)c1cccc(C(=O)NCC(F)(F)F)c1)c1ccccc1` | -44.77% | -21.14% |
| `CSCCC(C)NC(=O)CCN1C(=O)CCc2cc(F)ccc21` (stereo not drawn) | -8.494% | -4.274% |
| `COC(=O)CCCn1ccnc1C(C)c1ccccc1` (stereo not drawn) | -15.14% | -6.893% |
| `Cn1cccc1-c1cc(C(=O)NCCCc2csc(N)n2)[nH]n1` | -10.5% | -26.94% |
| `O=C(CCn1cncn1)N1CCC2(CC1)[C@H](O)C[C@@H]2OCCO` | -2.31% & 3.302% | 2.548% |
| `CCc1nc(CN2CCCN(C(=O)COCC3CC3)CC2)cs1` | -26.06% | -5.064% |
| `CNC(=O)c1cccc(CN2CCC(N(C)Cc3noc(C)n3)C2)c1` (stereo not drawn) | -1.716% & -27.32% | -13.15% |
| `c1csc(COC[C@H]2CCC[C@]23CN(Cc2ccoc2)CCO3)n1` | -13.68% | 9.875% & -4.778% |
| `CCCn1cnnc1CNCc1c[nH]nc1-c1ccc(F)cc1` | 20.56% | -1.989% |
| `O=C(NCc1ccc2c(c1)CCCO2)c1ccccc1C1CCNC1` (stereo not drawn) | -6.255% | 10.17% |
| `[H][C@@]12CCN(C(=O)c3ccccc3)C[C@@]1([H])O[C@@H](c1nnc(C3CC3)o1)C2` | 21.09% | -4.53% |
| `CCS(=O)(=O)c1ccc(N2CCC(NC(=O)C(C)SC)CC2)cc1` (stereo not drawn) | -1.508% | 4.891% |
| `O=C(O)[C@@H]1CN(C(=O)c2ccc(O)cc2)C[C@H]1c1cccc(F)c1` | 13.06% | 5.918% |
| `Cc1ccc(S(=O)(=O)Nc2ccc(-n3nnn(C)c3=O)cc2)cc1` | 11.39% & 2.952% | -5.212% |
| `COc1cccc(CN(C)C(=O)CN2CCN(c3nccs3)CC2)c1` | 22.86% | 8.448% |
| `CN1CCc2c(C#N)c(NCc3ccco3)n3cnnc3c2C1` | -3.475% & -8.547% | -1.14% |
| `COc1ccc(C[C@H]2CN(C(=O)c3ccc(C)nc3)CC[C@@H]2OC)cc1.O=C(O)C(F)(F)F` | 16.34% | 4.109% |
| `Cc1nn(C)c(C)c1CCC(=O)OCC(=O)N1CCc2sccc2C1` | -5.34% | -2.9% |
| `FC(F)(F)c1cc(-c2cccs2)nc(N2CCN3CCCC3C2)n1` (stereo not drawn) | 34.2% | 11.47% |
| `CC(C)c1n[nH]c(C2CN(C(=O)c3cc(Cl)c[nH]3)CCO2)n1` (stereo not drawn) | 16.54% | -12.35% |
| `Cc1cccc(C(=O)N2CCN(S(C)(=O)=O)[C@@H](C)C2)c1Cl` | 10.52% | 1.527% |
| `[H][C@]12CCCCN1CCC[C@H]2CCC(=O)NCc1cc(O)nc(C)n1` | -11.4% | -6.768% |
| `CC(O)CN1CCC(CN(C)Cc2cc(C#N)ccc2F)CC1` (stereo not drawn) | 6.991% | 5.703% |
| `Cn1cccc1C(=O)NC(C)(C(N)=O)c1cccc(Cl)c1` (stereo not drawn) | -47.61% | -12.45% |
| `Cc1ccccc1C(=O)N1CC[C@@H](N(C)C)[C@@H]1Cc1cnn(C)c1.O=C(O)C(F)(F)F` | -18.46% | -3.199% & -7.621% |
| `[H][C@@]12CS(=O)(=O)C[C@]1([H])N(C(=O)c1ccnn1C)CCN2C(=O)C1CC1` | -15.98% | 0.4229% & 14.44% |
| `CC(C)NC(=O)c1nc2c(s1)CCCN2c1ccccc1` | -1.222% & 14.62% | 1.807% |
| `O=C(O)C(F)(F)F.[H][C@@]12COC[C@H](C(=O)N3CCCO3)[C@]1([H])CN(C1CCOCC1)C2` | 26.74% & -4.992% | 19.73% |
| `CCn1ccc(-c2cc(C(=O)O)n3ncc(Cl)c3n2)n1` | -1.18% & 15.81% | -2.869% |
| `Cc1ccc(C(=O)N2CCC3(CCC(=O)N(C(C)C)C3)CC2)c(O)c1` | -43.38% | -24.14% |
| `N#Cc1ncn(CCS(=O)(=O)c2ccc(Cl)cc2)n1` | -4.063% & -7.455% | -9.422% |
| `COc1ccc(COCC(=O)N2CCCC(n3cncn3)C2)cc1` (stereo not drawn) | 108.8% | -25.1% |
| `Cc1cccnc1CNc1ccc(C(=O)N2CCc3ccccc32)cn1` | 19.66% | 0.3935% |
| `Cc1nn(C)cc1NC(=O)CN1CCC(Oc2cnccn2)CC1` | 3.377% | 13.45% |
| `Cc1c(C2c3nc[nH]c3CCN2CCOCc2ccccc2)cnn1C` (stereo not drawn) | -30.62% | -31.29% |
| `Cc1ccc(C(=O)NCCCNS(C)(=O)=O)cc1C` | -14.26% | -22.2% |
| `CCC(C)(C)NC(=O)CN(Cc1cccc(O)c1)C1CCC(O)CC1` (stereo not drawn) | 6.84% & 0.7187% | -5.135% & -3.831% |
| `O=C(NCc1nc2ccccc2[nH]1)c1cc2n(n1)CCCO2` | -17.39% & 5.033% | -1.1% |
| `O=C(CN1CCOc2ccc(Cl)cc21)NCCCn1ccnc1` | 30.94% | 13.64% |
| `CC(C)NC(=O)NCc1ccc(C(=O)NC(C)Cn2cccn2)cc1` (stereo not drawn) | 3.025% | -13.18% |
| `CC(=O)N1CCN(C(=O)C2SCCc3sccc32)CC1` (stereo not drawn) | -16.86% | -5.862% & 16.08% |
| `[H][C@]12CN(CCOC)C(=O)[C@@]1([H])CN(S(=O)(=O)c1cccs1)C2` | 1.592% | 15.88% |
| `O=C(NCc1ccccc1Cn1cncn1)C1CCC1` | 7.495% | -24.14% |
| `O=C(O)C(F)(F)F.O=C(c1ccoc1)N1CCC2(CCC(=O)N2Cc2ccncc2)CC1` | -3.676% & 20.77% | 8.693% |
| `CCOC(=O)C1CCN(Cc2csc(C(C)(C)C)n2)CC1` | 14.49% | -1.955% |
| `CNC(=O)c1cc2c(nc1NCC1CC1)CCN(S(=O)(=O)C1CC1)CC2` | -9.334% | -12.37% |
| `CC(=O)NC1CCN(c2nc(N(C)C)nc3c2CCCC3)CC1` | 11.33% & 0.5517% | 0.5959% & -5.031% |
| `CC(=O)N1CCCN(C(=O)c2cnc3n[nH]c(C)c3c2)CC1` | 12.72% | 3.093% |
| `Cc1ccccc1C(Nc1ncnc2c1CCNC2)c1ccccc1` (stereo not drawn) | -6.226% | -12.07% & 10.26% |
| `CCOC1COC2(CCN(Cc3ccc(C)c(C)c3)CC2)C1.O=C(O)C(F)(F)F` (stereo not drawn) | 27.43% | -4.463% |
| `c1ccc(C2CCCN2C2CSCCSC2)nc1` (stereo not drawn) | 39.08% | 17.04% |
| `CSc1ccccc1CN1CCn2nc(CNC(C)=O)cc2C1` | -3.743% & 40.54% | 6.711% |
| `O=C(Cc1ccc(F)cc1)N1CCn2cc(Cn3cccn3)nc2C1.O=C(O)C(F)(F)F` | 5.931% | -3.32% |
| `COc1cnc(C2(O)CCN(C(=O)c3ccncc3)CC2)c(OC)n1` | 1.002% | -13.83% |